These are literature values, as cited in US20050107420A1 (Boehringe Ingelheim Pharma GmbH & Co. KG, priority 2002, published 2005).

The conditions of the data set: in vivo.

SMILES strings stand for the structures.

As for `COc1ccc(C(=O)Nc2c(Cl)cncc2Cl)c2cccnc12` [Formula D4418], the oral absorption entry is given as “good oral absorption”.
